# Results reported in PubChem BioAssay AID540276 (National Center for Advancing Translational Sciences (NCATS), 2011).
# “And” between values parts separate entries of the source, which are not always exact repeats. Equal entries are not always repeated. The whole screen tested about 300,000 compounds, of which about 5,400 (1.8%) were called active. The shares of active, inactive and inconclusive entries below differ from those in the screen. Calls come from the whole dose curve; tested in HEK293 cells. A potency beside an inconclusive call is a rough fit, not a confirmed value.
# Test: qHTS for inhibitors of binding or entry into cells for Marburg Virus
# Conditions: Marburg virus pseudotyped entry inhibition, cell reporter; series mostly up to 37.8 µM
# Potency is the fitted concentration of half-maximal effect.
row,SMILES,Potency
1,COc1ccccc1N1CCN(C2CCCN(S(=O)(=O)c3ccccc3)C2)CC1 (stereo unspecified),"inconclusive: 14.1 µM [inhibitor, single point]"
2,CC(C)=CCN1CCN(Cc2cccn2-c2ncccn2)CC1CCO (stereo unspecified),"inconclusive: 6.31 µM [inhibitor, partial curve, poor fit]"
3,CNCCCOc1ccc2c(c1)CCC2,"inconclusive: 20 µM [inhibitor, partial curve, poor fit]"
4,CCC(=O)N1CCN(c2ccc(NC(=S)NC(=O)c3cc4ccccc4o3)cc2)CC1,inactive
5,O=C(COC(=O)c1cc(S(=O)(=O)N2CCOCC2)ccc1Cl)Nc1ccccc1Cl,"inconclusive: 35.5 µM [activator, single point]"
6,COCCn1c(SCC(=O)Nc2ccc(S(=O)(=O)N(C)C)cc2)nc2ccccc21,"inconclusive: 35.5 µM [inhibitor, single point]"
7,Cc1noc(C)c1S(=O)(=O)N1CCCC(C(=O)Nc2ccc(C(C)C)cc2)C1 (stereo unspecified),"inconclusive: 5.62 µM [activator, single point]"
8,CCOc1ncccc1C(=O)Nc1ccc(S(=O)(=O)N2CC(C)CC(C)C2)cc1 (stereo unspecified),"inconclusive: 1.26 µM [inhibitor, partial curve, poor fit]"
9,c1cnn(-c2nc(N3CCOCC3)nc(N3CCOCC3)n2)c1,"inconclusive: 29.1 µM [inhibitor, single point]"
10,CC(C)=CCc1c2c(c3occ(-c4ccc(O)c(O)c4)c(=O)c3c1O)C=CC(C)(C)O2,"inconclusive: 5.01 µM [inhibitor, partial curve, poor fit]"
11,Cc1cccnc1NC(=S)NC(=O)c1oc2ccccc2c1C,"inconclusive: 5.01 µM [activator, partial curve]"
12,O=C(/C=C\c1cn(-c2ccccc2)nc1-c1ccccc1)Nc1nccs1,"inconclusive: 18.4 µM [inhibitor, partial curve, poor fit]"
13,O=C(Nc1cccnc1)c1cc(-c2cccc(Br)c2)nc2ccccc12,"inconclusive: 22.4 µM [inhibitor, single point]"
14,Cc1ccc(Cn2c(SCc3cccnc3)nc3c2c(=O)n(C)c(=O)n3C)cc1,inactive
15,CCCNS(=O)(=O)c1ccc(OCC(=O)N2CCc3ccccc3C2)c(C)c1,"inconclusive: 11.2 µM [inhibitor, partial curve, poor fit]"
16,O=c1[nH]c(=O)n(Cc2ccccc2)c2nc(-c3ccco3)cc(C(F)(F)F)c12,inactive
17,Cc1ccc(OCC(=O)Nc2ccc3nc(Nc4cccc(Cl)c4)cc(C)c3c2)cc1,inactive
18,Cn1ccnc1C1CCCCN1Cc1nc(-c2ccc3c(c2)OCO3)no1 (stereo unspecified),"inconclusive: 1.26 µM [inhibitor, full curve]"
19,CCN(CC)c1ccc(S(=O)(=O)N2CCOCC2)cc1NC(=O)CN1CCc2ccccc2C1,"inconclusive: 10 µM [inhibitor, partial curve, poor fit]"
20,COc1ccccc1C1CCN(C(=O)c2ccco2)CC1,inactive
21,OCCNCc1cc(Br)ccc1OCc1ccccc1Cl,"inconclusive: 12.6 µM [inhibitor, single point]"
22,Cc1ccc(C2(CC(=O)Nc3nccs3)CCOC(C(C)C)C2)cc1 (stereo unspecified),"inconclusive: 35.5 µM [activator, single point]"

# 19 entries from above, with tabs.
row	SMILES	Potency
4	CCC(=O)N1CCN(c2ccc(NC(=S)NC(=O)c3cc4ccccc4o3)cc2)CC1	inactive
5	O=C(COC(=O)c1cc(S(=O)(=O)N2CCOCC2)ccc1Cl)Nc1ccccc1Cl	inconclusive: 35.5 µM [activator, single point]
6	COCCn1c(SCC(=O)Nc2ccc(S(=O)(=O)N(C)C)cc2)nc2ccccc21	inconclusive: 35.5 µM [inhibitor, single point]
7	Cc1noc(C)c1S(=O)(=O)N1CCCC(C(=O)Nc2ccc(C(C)C)cc2)C1 (stereo unspecified)	inconclusive: 5.62 µM [activator, single point]
8	CCOc1ncccc1C(=O)Nc1ccc(S(=O)(=O)N2CC(C)CC(C)C2)cc1 (stereo unspecified)	inconclusive: 1.26 µM [inhibitor, partial curve, poor fit]
9	c1cnn(-c2nc(N3CCOCC3)nc(N3CCOCC3)n2)c1	inconclusive: 29.1 µM [inhibitor, single point]
10	CC(C)=CCc1c2c(c3occ(-c4ccc(O)c(O)c4)c(=O)c3c1O)C=CC(C)(C)O2	inconclusive: 5.01 µM [inhibitor, partial curve, poor fit]
11	Cc1cccnc1NC(=S)NC(=O)c1oc2ccccc2c1C	inconclusive: 5.01 µM [activator, partial curve]
12	O=C(/C=C\c1cn(-c2ccccc2)nc1-c1ccccc1)Nc1nccs1	inconclusive: 18.4 µM [inhibitor, partial curve, poor fit]
13	O=C(Nc1cccnc1)c1cc(-c2cccc(Br)c2)nc2ccccc12	inconclusive: 22.4 µM [inhibitor, single point]
14	Cc1ccc(Cn2c(SCc3cccnc3)nc3c2c(=O)n(C)c(=O)n3C)cc1	inactive
15	CCCNS(=O)(=O)c1ccc(OCC(=O)N2CCc3ccccc3C2)c(C)c1	inconclusive: 11.2 µM [inhibitor, partial curve, poor fit]
16	O=c1[nH]c(=O)n(Cc2ccccc2)c2nc(-c3ccco3)cc(C(F)(F)F)c12	inactive
17	Cc1ccc(OCC(=O)Nc2ccc3nc(Nc4cccc(Cl)c4)cc(C)c3c2)cc1	inactive
18	Cn1ccnc1C1CCCCN1Cc1nc(-c2ccc3c(c2)OCO3)no1 (stereo unspecified)	inconclusive: 1.26 µM [inhibitor, full curve]
19	CCN(CC)c1ccc(S(=O)(=O)N2CCOCC2)cc1NC(=O)CN1CCc2ccccc2C1	inconclusive: 10 µM [inhibitor, partial curve, poor fit]
20	COc1ccccc1C1CCN(C(=O)c2ccco2)CC1	inactive
21	OCCNCc1cc(Br)ccc1OCc1ccccc1Cl	inconclusive: 12.6 µM [inhibitor, single point]
22	Cc1ccc(C2(CC(=O)Nc3nccs3)CCOC(C(C)C)C2)cc1 (stereo unspecified)	inconclusive: 35.5 µM [activator, single point]

# Next entries follow:

row,SMILES,Potency
1,COC(=O)c1[nH]c(C)c(/C(O)=C2\C(=O)C(=O)N(CCCN3CCOCC3)C2c2ccccn2)c1C (stereo unspecified),"inconclusive: 12.6 µM [activator, single point]"
2,CC(C)c1ccccc1OCC(O)CN(CC(O)COc1cccc2ccccc12)C(C)C (stereo unspecified),"inconclusive: 5.62 µM [inhibitor, full curve, poor fit]"
3,Cc1ccc(OCc2nnc(SCC(=O)Nc3ccc4c(c3)OCO4)n2C)cc1,inactive
4,C=CCOC(=O)N[C@H](c1ccc(-c2ccccc2)cc1)[C@H](C)C=CCC(=O)OC,inactive
5,COc1cc2nc(NC(=O)c3ccco3)sc(=O)c2cc1OC,"inconclusive: 1 µM [inhibitor, full curve, poor fit]"
6,O=C1CC2(CCN(C(=O)C(=O)c3c[nH]c4ccccc34)CC2)Oc2ccccc21,"inconclusive: 35.5 µM [inhibitor, single point]"
7,N#CC1=C(N)Oc2ccc3ccccc3c2C1c1cccnc1 (stereo unspecified),"inconclusive: 3.26 µM [inhibitor, partial curve, poor fit]"
8,CCc1cc(CNC(=O)C2CCC(=O)N(Cc3cccc(F)c3)C2)on1 (stereo unspecified),inactive
9,N#Cc1cc2c(nc1SCC(=O)Nc1cccc(F)c1)C1CCN2CC1,"inconclusive: 14.1 µM [inhibitor, single point]"
10,CN(C)CCCNC(=O)c1cc(C(=O)c2cccc(Cl)c2Cl)c[nH]1,"inconclusive: 35.5 µM [inhibitor, single point]"
11,CCOCCCNC(=O)C(NC(=O)c1ccc2c(c1)OCO2)c1ccc(Cl)cc1 (stereo unspecified),inactive
12,Nc1ccc(S(=O)(=O)NN=CC=Cc2ccccc2[N+](=O)[O-])cc1,"inconclusive: 35.5 µM [inhibitor, single point]"
13,O=C(Nc1cccc(C(F)(F)F)c1)Nc1nnc(N2CCCCC2)s1,"inconclusive: 6.31 µM [inhibitor, single point]"
14,O=C(COC(=O)CNS(=O)(=O)c1cccc(Br)c1)Nc1ccccc1Sc1ccccc1,"inconclusive: 0.282 µM [inhibitor, full curve, poor fit]"
15,C/C(CC(=O)NC(C)(C)C)=N\NC(=O)c1ccccc1N,"inconclusive: 2.82 µM [activator, full curve]"
16,O=C(NCc1ccco1)c1cc(S(=O)(=O)N2CCCc3ccccc32)ccc1Cl,"inconclusive: 3.98 µM [inhibitor, partial curve, poor fit]"
17,O=C(CSCc1ccccc1)Nc1ccccc1C(=O)Nc1ccc(C(=O)O)cc1,inactive
18,CN(C)c1ccc(/C=C(\C#N)c2ccccn2)cc1,active: 1.16 µM
19,O=C(NCc1ccco1)/C(=C\c1ccc(F)cc1)NC(=O)c1ccco1,"inconclusive: 11.2 µM [activator, single point]"
20,O=C(CCN1CCCC1Cc1ccccc1)c1ccc2c(c1)OCCO2 (stereo unspecified),"inconclusive: 35.5 µM [inhibitor, single point]"
21,Cc1ccc(S(=O)(=O)N2CCOCC2)cc1C(=O)Nc1ccc(-c2cn3ccsc3n2)cc1,"inactive and inconclusive: 35.5 µM [inhibitor, single point]"
22,COc1cc(C2C(C#N)=C(N)N(N(C)C)C3=C2C(=O)CC(C)(C)C3)cc(OC)c1OC (stereo unspecified),"inconclusive: 35.5 µM [inhibitor, single point]"

row,SMILES,Potency
1,Cc1cccc(/C(N)=N/OC(=O)c2ccoc2C)c1,"inconclusive: 35.5 µM [inhibitor, single point]"
2,COc1ccc(N2CCN(C(=O)COc3ccc4c(C)cc(=O)oc4c3)CC2)cc1,"inconclusive: 6.31 µM [activator, single point]"
3,COc1ccccc1C1NC(=O)NC(C)=C1C(=O)OCc1ccccc1 (stereo unspecified),"inconclusive: 35.5 µM [inhibitor, partial curve, poor fit]"
4,COc1ccc(NC(=O)N(Cc2cc3ccc(OC)cc3[nH]c2=O)CC2CCCO2)cc1 (stereo unspecified),"inconclusive: 3.98 µM [inhibitor, full curve, poor fit]"
5,O=C(CF)NC(Nc1cccc2cccnc12)C(Cl)(Cl)Cl (stereo unspecified),"inconclusive: 12.6 µM [inhibitor, single point]"
6,O=C(NCCc1ccccc1)c1ccc2c(c1)OCCO2,active: 0.447 µM
7,COc1ccc(OCCSc2nc3ccccc3n2CC(=O)N2CCOCC2)cc1,"inconclusive: 0.501 µM [activator, full curve, poor fit]"
8,Cc1ccc(-c2noc(CSc3nnc(C)n3-c3ccc(C)cc3)n2)cc1,inactive
9,COc1ccc(CCC(=O)Nc2ccc3c(c2)OCCO3)cc1,inactive
10,Cc1ccc(Sc2c(C#N)c(-c3ccccc3)nn2C)cc1,"inconclusive: 32.6 µM [inhibitor, single point]"
11,Cc1ccc(Oc2nn[nH]n2)cc1,inactive
12,CCN(CC)S(=O)(=O)c1cc(NC(=O)CSc2nccn2C)ccc1C,"inconclusive: 1 µM [inhibitor, partial curve, poor fit]"
13,CC12CCC3C(CCC4(O)CC(O)CCC34C=NO)C1(O)CCC2C1=COC(=O)C1 (stereo unspecified),active: 0.178 µM
14,COc1ccc(NC(=O)CN2C(=O)NC3(CCCCC3C)C2=O)cc1OC (stereo unspecified),"inconclusive: 3.16 µM [activator, single point]"
15,CCN1CCc2c(sc(NC(=O)c3ccc(S(=O)(=O)N(C)CC4CCCO4)cc3)c2C(N)=O)C1 (stereo unspecified),inactive
16,Cn1c(=O)n(CCc2ccccc2)c(=O)c2c1nc1n2CCCN1CCc1ccccc1,"inconclusive: 11.2 µM [inhibitor, partial curve, poor fit]"
17,O=C(O)CCC(=O)N1N=C(c2ccccc2)CC1c1cccs1 (stereo unspecified),inactive
18,Clc1ccc(CSc2nncn2-c2ccc3c(c2)OCCO3)cc1,"inconclusive: 3.55 µM [inhibitor, partial curve, poor fit]"
19,CCC(=O)NCCc1nc2cc(NC(=O)c3cccc([N+](=O)[O-])c3)ccc2n1C,"inconclusive: 5.62 µM [activator, single point]"
20,COc1ccc(OC)c(NC(=O)c2nnn(Cc3ccc(Br)cc3F)c2N)c1,inactive
21,Cc1cccc(C)c1NC(=O)CSc1nnc(C2CCCCC2)o1,"inconclusive: 5.62 µM [inhibitor, single point]"
22,CN1CCc2c(OCC(=O)N3N=C(c4cccs4)CC3c3ccc(F)cc3)cccc2C1=O (stereo unspecified),"inconclusive: 0.112 µM [inhibitor, full curve, poor fit]"
